Experimental data taken from publication PMC9942973.

Chains of the proteins cited; added tags and fusions are not shown.
UniProt P16788: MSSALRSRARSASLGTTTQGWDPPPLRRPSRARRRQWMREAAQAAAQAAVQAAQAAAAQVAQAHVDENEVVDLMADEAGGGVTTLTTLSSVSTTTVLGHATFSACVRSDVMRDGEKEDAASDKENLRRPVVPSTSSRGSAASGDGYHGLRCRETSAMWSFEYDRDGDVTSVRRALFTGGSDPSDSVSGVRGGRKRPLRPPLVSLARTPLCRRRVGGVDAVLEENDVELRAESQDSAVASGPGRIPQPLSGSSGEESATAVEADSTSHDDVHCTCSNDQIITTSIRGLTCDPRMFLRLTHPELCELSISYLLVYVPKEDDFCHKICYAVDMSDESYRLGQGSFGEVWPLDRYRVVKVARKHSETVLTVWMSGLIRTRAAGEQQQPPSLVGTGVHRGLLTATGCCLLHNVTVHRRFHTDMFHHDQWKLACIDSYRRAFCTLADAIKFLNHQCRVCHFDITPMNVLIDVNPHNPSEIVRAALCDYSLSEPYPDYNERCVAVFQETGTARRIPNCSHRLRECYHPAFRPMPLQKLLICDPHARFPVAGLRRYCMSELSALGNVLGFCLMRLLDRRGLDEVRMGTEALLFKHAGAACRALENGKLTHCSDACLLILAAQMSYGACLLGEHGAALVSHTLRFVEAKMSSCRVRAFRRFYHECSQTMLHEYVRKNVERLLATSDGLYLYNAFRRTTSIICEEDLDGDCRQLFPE

Biological target: pUL97-FLAG (HCMV pUL97, wild type, FLAG-tagged) (HCMV (human cytomegalovirus)) (UniProt P16788)
Test: affinity purification with mass spectrometry; host proteins enriched with ectopically expressed pUL97-FLAG in NPCs by immunoprecipitation with anti-FLAG antibody, then LC-MS/MS

B1: regulatory factor X 7 (RFX7) (protein, UniProt Q2KHR2 1-1460)
chain: MAEEQQQPPPQQPDAHQQLPPSAPNSGVALPALVPGLPGTEASALQHKIKNSICKTVQSKVDCILQEVEKFTDLEKLYLYLQLPSGLSNGEKSDQNAMSSSRAQQMHAFSWIRNTLEEHPETSLPKQEVYDEYKSYCDNLGYHPLSAADFGKIMKNVFPNMKARRLGTRGKSKYCYSGLRKKAFVHMPTLPNLDFHKTGDGLEGAEPSGQLQNIDEEVISSACRLVCEWAQKVLSQPFDTVLELARFLVKSHYIGTKSMAALTVMAAAPAGMKGITQPSAFIPTAESNSFQPQVKTLPSPIDAKQQLQRKIQKKQQEQKLQSPLPGESAAKKSESATSNGVTNLPNGNPSILSPQPIGIVVAAVPSPIPVQRTRQLVTSPSPMSSSDGKVLPLNVQVVTQHMQSVKQAPKTPQNVPASPGGDRSARHRYPQILPKPANTSALTIRSPTTVLFTSSPIKTAVVPASHMSSLNVVKMTTISLTPSNSNTPLKHSASVSSATGTTEESRSVPQIKNGSVVSLQSPGSRSSSAGGTSAVEVKVEPETSSDEHPVQCQENSDEAKAPQTPSALLGQKSNTDGALQKPSNEGVIEIKATKVCDQRTKCKSRCNEMLPGTSTGNNQSTITLSVASQNLTFTSSSSPPNGDSINKDPKLCTKSPRKRLSSTLQETQVPPVKKPIVEQLSAATIEGQKQGSVKKDQKVPHSGKTEGSTAGAQIPSKVSVNVSSHIGANQPLNSSALVISDSALEQQTTPSSSPDIKVKLEGSVFLLDSDSKSVGSFNPNGWQQITKDSEFISASCEQQQDISVMTIPEHSDINDLEKSVWELEGMPQDTYSQQLHSQIQESSLNQIQAHSSDQLPLQSELKEFEPSVSQTNESYFPFDDELTQDSIVEELVLMEQQMSMNNSHSYGNCLGMTLQSQSVTPGAPMSSHTSSTHFYHPIHSNGTPIHTPTPTPTPTPTPTPTPTPTSEMIAGSQSLSRESPCSRLAQTTPVDSALGSSRHTPIGTPHSNCSSSVPPSPVECRNPFAFTPISSSMAYHDASIVSSSPVKPMQRPMATHPDKTKLEWMNNGYSGVGNSSVSGHGILPSYQELVEDRFRKPHAFAVPGQSYQSQSRHHDTHFGRLTPVSPVQHQGATVNNTNKQEGFAVPAPLDNKGTNSSASSNFRCRSVSPAVHRQRNLSGSTLYPVSNIPRSNVTPFGSPVTPEVHVFTNVHTDACANNIAQRSQSVPLTVMMQTAFPNALQKQANSKKITNVLLSKLDSDNDDAVRGLGMNNLPSNYTARMNLTQILEPSTVFPSANPQNMIDSSTSVYEFQTPSYLTKSNSTGQINFSPGDNQAQSEIGEQQLDFNSTVKDLLSGDSLQTNQQLVGQGASDLTNTASDFSSDIRLSSELSGSINDLNTLDPNLLFDPGRQQGQDDEATLEELKNDPLFQQICSESMNSMTSSGFEWIESKDHPTVEMLG
binding: binds

These are yes or no findings as the source states them, for the method shown. Binding seen in cells or lysates may run through a third protein. Here binding means that the protein was enriched with, or labelled near, the bait; the list need not be complete.
